# According to the supplement of paper PMC10849652:
# By UniProt entry, the sequences of proteins in these tests, tags left out. Where a name states a change or a piece, a line headed by the entry shows the natural chain unless it says otherwise.
# UniProt P11498: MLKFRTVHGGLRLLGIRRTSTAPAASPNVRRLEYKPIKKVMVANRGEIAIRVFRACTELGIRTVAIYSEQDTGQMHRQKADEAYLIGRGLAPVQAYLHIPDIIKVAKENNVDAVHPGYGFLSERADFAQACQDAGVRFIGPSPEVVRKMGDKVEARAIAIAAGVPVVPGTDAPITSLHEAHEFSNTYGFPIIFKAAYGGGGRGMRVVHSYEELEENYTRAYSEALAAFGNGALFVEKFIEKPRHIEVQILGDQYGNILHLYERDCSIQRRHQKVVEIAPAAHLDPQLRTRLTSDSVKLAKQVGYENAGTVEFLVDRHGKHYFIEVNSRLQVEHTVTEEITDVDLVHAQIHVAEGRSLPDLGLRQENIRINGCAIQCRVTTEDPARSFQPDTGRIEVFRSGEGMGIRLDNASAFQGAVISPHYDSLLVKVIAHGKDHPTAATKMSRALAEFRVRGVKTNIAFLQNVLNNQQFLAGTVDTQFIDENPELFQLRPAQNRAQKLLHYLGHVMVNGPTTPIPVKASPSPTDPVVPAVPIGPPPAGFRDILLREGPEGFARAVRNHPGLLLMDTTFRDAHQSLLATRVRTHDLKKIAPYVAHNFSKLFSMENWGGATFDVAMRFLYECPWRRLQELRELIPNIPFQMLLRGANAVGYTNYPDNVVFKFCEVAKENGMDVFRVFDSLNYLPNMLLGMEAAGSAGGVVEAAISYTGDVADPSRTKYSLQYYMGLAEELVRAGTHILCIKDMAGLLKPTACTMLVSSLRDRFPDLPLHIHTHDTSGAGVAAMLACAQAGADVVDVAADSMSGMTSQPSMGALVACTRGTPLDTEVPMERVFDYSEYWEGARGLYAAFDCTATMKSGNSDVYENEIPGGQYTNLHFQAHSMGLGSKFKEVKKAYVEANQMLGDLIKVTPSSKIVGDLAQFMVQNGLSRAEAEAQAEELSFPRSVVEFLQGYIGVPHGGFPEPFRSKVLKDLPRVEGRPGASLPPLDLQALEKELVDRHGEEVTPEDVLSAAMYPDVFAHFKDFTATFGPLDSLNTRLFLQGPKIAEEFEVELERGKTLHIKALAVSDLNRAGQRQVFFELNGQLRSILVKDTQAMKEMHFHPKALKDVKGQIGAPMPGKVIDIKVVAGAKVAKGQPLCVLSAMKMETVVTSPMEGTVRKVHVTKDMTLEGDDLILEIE
# UniProt Q96KB5: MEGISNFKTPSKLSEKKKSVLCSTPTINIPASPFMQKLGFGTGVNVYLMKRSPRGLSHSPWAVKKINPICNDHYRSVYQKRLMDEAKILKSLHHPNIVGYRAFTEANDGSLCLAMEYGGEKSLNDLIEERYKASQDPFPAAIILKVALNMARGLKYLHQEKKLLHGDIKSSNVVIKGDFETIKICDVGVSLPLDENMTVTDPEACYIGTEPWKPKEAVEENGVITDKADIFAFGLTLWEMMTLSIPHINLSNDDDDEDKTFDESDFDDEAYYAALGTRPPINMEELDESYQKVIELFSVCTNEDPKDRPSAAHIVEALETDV
# UniProt P60673: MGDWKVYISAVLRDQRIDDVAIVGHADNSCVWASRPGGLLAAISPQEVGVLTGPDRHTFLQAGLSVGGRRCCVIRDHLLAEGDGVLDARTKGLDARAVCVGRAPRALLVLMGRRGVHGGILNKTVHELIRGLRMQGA
# UniProt Q86U86, whole entry, looked up: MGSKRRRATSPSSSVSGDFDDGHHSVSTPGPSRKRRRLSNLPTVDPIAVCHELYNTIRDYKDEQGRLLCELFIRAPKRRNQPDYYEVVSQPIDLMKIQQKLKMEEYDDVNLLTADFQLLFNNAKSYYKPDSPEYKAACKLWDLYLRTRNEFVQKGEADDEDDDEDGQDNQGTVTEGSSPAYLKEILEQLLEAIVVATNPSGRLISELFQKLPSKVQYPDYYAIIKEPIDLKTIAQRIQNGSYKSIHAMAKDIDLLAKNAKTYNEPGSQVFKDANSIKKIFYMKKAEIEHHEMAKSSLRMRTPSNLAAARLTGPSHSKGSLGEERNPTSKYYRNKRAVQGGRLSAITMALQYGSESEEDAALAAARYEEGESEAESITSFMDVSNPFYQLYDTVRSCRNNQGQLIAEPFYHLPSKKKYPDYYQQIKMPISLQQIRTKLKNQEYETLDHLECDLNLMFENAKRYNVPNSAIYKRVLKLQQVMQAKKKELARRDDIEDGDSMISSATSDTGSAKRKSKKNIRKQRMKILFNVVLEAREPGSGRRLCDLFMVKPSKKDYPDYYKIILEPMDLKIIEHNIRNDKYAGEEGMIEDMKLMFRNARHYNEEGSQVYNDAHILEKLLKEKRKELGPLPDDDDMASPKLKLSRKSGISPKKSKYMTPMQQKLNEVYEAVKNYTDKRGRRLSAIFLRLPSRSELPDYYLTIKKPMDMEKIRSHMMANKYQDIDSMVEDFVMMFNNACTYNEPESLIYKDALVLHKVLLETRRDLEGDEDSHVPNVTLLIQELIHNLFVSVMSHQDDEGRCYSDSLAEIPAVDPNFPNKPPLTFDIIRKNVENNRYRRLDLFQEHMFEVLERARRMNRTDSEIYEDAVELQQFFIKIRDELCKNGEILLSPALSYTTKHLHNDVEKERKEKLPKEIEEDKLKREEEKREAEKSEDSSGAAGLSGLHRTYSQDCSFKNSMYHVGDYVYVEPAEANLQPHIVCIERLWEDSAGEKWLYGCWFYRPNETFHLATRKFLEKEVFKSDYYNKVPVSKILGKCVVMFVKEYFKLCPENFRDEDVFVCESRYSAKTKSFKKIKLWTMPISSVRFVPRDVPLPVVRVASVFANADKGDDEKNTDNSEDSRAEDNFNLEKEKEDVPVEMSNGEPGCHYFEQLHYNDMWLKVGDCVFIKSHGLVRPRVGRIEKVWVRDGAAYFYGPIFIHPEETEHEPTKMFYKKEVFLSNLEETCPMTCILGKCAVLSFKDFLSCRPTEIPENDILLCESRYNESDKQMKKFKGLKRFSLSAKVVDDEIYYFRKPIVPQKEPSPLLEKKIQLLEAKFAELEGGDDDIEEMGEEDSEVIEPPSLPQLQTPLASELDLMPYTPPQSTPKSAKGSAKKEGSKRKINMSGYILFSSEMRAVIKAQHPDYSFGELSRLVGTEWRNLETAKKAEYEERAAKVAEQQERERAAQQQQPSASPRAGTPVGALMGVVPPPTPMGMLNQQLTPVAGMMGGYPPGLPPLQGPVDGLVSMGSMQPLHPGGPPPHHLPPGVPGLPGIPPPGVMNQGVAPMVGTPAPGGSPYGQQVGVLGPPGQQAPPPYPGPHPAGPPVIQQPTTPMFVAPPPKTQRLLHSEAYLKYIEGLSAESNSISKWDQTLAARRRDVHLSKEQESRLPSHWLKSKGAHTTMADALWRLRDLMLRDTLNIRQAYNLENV
# UniProt Q9UKK3: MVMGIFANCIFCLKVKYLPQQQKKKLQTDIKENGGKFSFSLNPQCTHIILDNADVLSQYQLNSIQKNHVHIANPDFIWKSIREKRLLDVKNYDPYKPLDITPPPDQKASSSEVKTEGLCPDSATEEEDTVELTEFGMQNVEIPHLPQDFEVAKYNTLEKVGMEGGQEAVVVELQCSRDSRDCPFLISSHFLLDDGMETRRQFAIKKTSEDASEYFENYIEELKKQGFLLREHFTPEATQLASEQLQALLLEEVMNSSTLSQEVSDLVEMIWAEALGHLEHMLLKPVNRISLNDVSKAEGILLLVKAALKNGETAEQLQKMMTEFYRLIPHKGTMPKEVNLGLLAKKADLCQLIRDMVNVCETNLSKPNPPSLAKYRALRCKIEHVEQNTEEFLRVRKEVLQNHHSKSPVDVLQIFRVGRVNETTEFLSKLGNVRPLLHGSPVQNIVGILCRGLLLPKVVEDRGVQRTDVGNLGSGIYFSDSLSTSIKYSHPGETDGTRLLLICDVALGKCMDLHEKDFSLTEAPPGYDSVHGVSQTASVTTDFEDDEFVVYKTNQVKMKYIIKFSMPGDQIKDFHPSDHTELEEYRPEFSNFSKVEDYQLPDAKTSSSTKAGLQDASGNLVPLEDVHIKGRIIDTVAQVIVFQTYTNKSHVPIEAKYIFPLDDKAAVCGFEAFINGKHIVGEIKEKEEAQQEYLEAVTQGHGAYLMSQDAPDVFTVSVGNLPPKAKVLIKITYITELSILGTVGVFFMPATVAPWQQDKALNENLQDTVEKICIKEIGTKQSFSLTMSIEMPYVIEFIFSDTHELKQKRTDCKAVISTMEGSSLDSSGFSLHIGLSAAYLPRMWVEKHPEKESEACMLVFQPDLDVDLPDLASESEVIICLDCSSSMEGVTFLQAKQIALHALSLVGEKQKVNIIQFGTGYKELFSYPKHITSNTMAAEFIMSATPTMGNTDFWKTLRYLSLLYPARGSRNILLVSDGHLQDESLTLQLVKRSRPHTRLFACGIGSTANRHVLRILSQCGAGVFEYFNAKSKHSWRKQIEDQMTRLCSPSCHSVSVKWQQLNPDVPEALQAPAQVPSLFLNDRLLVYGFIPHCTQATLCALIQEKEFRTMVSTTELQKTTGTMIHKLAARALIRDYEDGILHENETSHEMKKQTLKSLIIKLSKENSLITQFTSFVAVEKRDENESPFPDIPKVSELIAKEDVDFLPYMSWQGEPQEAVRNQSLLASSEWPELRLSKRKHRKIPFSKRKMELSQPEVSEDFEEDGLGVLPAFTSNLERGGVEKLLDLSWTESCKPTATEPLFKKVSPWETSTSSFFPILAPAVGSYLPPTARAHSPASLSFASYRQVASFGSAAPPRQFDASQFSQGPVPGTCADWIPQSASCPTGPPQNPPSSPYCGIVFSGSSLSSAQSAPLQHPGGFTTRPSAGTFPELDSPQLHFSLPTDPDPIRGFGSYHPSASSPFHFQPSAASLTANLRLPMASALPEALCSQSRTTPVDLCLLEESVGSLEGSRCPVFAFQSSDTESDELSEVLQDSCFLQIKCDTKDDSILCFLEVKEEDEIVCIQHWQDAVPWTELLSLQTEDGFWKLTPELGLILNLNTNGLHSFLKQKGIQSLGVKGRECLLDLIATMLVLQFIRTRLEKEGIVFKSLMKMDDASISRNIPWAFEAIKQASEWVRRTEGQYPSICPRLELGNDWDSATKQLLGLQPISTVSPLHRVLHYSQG
# UniProt Q9BSM1: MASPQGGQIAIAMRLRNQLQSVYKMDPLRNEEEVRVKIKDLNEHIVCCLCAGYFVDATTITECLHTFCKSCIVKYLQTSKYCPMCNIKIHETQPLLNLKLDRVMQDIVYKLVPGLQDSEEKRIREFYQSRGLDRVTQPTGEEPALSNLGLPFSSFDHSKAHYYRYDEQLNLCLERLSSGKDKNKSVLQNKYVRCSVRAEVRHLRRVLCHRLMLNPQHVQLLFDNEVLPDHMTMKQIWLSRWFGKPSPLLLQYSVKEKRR
# UniProt O15055: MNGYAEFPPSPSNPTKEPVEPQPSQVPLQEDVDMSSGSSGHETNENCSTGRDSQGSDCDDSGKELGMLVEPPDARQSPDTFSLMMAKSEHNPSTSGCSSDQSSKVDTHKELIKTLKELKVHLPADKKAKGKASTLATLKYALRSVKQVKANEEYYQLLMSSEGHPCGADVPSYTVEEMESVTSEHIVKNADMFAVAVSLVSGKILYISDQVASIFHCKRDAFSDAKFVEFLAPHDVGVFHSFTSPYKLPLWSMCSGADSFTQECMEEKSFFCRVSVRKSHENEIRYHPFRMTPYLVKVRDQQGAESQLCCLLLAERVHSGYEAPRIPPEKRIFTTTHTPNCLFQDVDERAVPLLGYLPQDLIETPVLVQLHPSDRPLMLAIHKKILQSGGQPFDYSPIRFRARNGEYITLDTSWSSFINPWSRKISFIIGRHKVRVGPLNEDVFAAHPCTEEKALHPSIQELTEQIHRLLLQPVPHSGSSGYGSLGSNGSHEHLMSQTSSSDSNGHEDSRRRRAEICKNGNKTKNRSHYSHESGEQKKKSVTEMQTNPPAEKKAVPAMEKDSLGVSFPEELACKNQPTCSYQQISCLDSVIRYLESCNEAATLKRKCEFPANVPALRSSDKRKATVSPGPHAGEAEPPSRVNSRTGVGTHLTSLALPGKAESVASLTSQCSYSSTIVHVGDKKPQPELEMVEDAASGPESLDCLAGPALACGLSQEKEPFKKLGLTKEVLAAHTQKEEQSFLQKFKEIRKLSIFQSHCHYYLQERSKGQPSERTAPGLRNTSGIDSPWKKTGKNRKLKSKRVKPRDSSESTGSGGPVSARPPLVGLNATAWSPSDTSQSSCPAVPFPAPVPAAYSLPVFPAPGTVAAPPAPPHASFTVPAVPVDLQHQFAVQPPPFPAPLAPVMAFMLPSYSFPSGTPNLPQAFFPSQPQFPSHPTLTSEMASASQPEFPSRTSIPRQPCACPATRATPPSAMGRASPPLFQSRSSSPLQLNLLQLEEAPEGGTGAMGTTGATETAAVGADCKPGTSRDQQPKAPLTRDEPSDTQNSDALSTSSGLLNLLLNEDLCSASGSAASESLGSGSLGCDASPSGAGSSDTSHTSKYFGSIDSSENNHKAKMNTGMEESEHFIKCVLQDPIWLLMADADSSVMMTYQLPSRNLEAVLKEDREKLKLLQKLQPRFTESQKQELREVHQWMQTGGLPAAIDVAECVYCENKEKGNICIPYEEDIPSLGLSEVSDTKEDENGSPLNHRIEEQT
# The list shows a part of the results.
# Legend:
# Assay in all cases: log2 fold change, soluble protein after heating vs DMSO (PISA); higher = thermal stabilisation; K562 lysate, 10 uM; active = over 0.2 and 3.5 SD of the protein, either way, in both replicates (recomputed)
# erlotinib = compound: C#Cc1cccc(Nc2ncnc3cc(OCCOC)c(OCCOC)cc23)c1 [erlotinib]
# In short: (§1)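 Pellets of K562 cells were dounce-homogenised in PBS pH 7.4 with 1 mM MgCl2, and the crude extract was held at 1 mg/mL protein for a 30 min treatment with 10 μM compound. Aliquots were heated for 3 min over 48°C-58°C and pooled before NP-40 was added to 0.5% at 4°C. The supernatant from 21,000xg for 90 min was quantified by TMTpro 16plex LC-MS/MS with channel sums equalised. Values are reported from duplicates as log-two fold change in thermal stability relative to solvent controls.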
# [1] = compound: C/C(=N\NC(=O)C1=CC(=CC=C1)S(=O)(=O)N2CCOCC2)/C3=C(C=CC(=C3)Cl)O
# In short: as §1
# [2] = compound: C1=CC(=CC=C1C2=NC3=C(N2)C=C(C=C3)C(=O)N)OC4=CC=C(C=C4)Cl
# In short: as §1
# [3] = compound: C1=CC2=C(C=CC(=C2)/C=C\3/C(=O)NC(=NCC4=CC=CS4)S3)N=C1
# In short: as §1
# [4] = compound: C1=CC2=NC=CN=C2C=C1/C=C/3\C(=O)NC(=O)S3
# In short: as §1
# [5] = compound: C1=CC=C(C=C1)C2=NC(=C(N2)C3=CC=NC=C3)C4=CC(=C(C=C4)Cl)O
# In short: as §1
# [6] = compound: C1=CC=C2C(=C1)C3=NNC4=CC=CC(=C43)C2=O
# In short: as §1
# [7] = compound: C1CCN(C1)C(=O)NC2=CC=CC(=C2)NC3=NC=C(C(=N3)NCCC4=CN=CN4)Br
# In short: as §1
# [8] = compound: C1CN(CCC1(CC2=CC=C(C=C2)Cl)N)C3=NC=NC4=C3C=CN4
# In short: as §1
# IRAK-1-4 Inhibitor I = compound: C1COCCN1CCN2C3=CC=CC=C3N=C2NC(=O)C4=CC(=CC=C4)[N+](=O)[O-] [IRAK-1-4 Inhibitor I]
# In short: as §1
Target,log2 fold change (erlotinib),log2 fold change [1],log2 fold change [2],log2 fold change [3],log2 fold change [4],log2 fold change [5],log2 fold change [6],log2 fold change [7],log2 fold change [8],log2 fold change (IRAK-1-4 Inhibitor I)
PC (UniProt P11498),inactive: 0.018,inactive: 0.005,inactive: 0.005,inactive: 0.012,inactive: 0.027,inactive: -0.009,inactive: -0.032,inactive: 0.054,inactive: -0.011,inactive: 0.012
PDSS1 (UniProt Q5T2R2),inactive: 0.154,inactive: -0.096,inactive: 0.02,inactive: 0.011,inactive: -0.038,inactive: -0.041,inactive: -0.172,inactive: -0.041,inactive: -0.079,inactive: 0.064
PDCL (UniProt Q13371),inactive: -0.047,inactive: -0.071,inactive: 0.096,inactive: 0.047,inactive: -0.003,inactive: -0.009,inactive: -0.085,inactive: 0.028,inactive: 0.057,inactive: 0.012
PDCD11 (UniProt Q14690),inactive: 0.045,inactive: 0.195,inactive: 0.011,inactive: 0.04,inactive: -0.054,inactive: -0.019,inactive: -0.051,inactive: -0.011,inactive: 0.016,inactive: -0.016
PCTP (UniProt Q9UKL6),inactive: 0.023,inactive: 0.057,inactive: 0.026,inactive: 0.06,inactive: 0,inactive: 0.008,inactive: -0.056,inactive: 0.002,inactive: -0.025,inactive: 0.024
PCMT1 isoform 2 (UniProt P22061),inactive: -0.013,inactive: -0.017,inactive: -0.014,inactive: 0.006,inactive: -0.03,inactive: -0.007,inactive: 0.011,inactive: 0.025,inactive: 0.035,inactive: -0.001
PDIA5 (UniProt Q14554),inactive: -0.04,inactive: -0.047,inactive: 0.031,inactive: 0.003,inactive: 0.001,inactive: -0.014,inactive: 0.005,inactive: 0.013,inactive: 0.042,inactive: -0.005
PCYT1A (UniProt P49585),inactive: -0.021,inactive: -0.01,inactive: -0.003,inactive: -0.009,inactive: -0.006,inactive: -0.003,inactive: 0.003,inactive: 0.012,inactive: -0.012,inactive: 0.009
PDE8A (UniProt O60658),inactive: 0.155,inactive: -0.201,inactive: 0.042,inactive: 0.05,inactive: -0.069,,inactive: 0.263,,,
PBK (UniProt Q96KB5),inactive: 0.012,inactive: 0.026,inactive: -0.044,inactive: 0.014,inactive: -0.014,inactive: 0.008,inactive: -0.001,inactive: -0.007,inactive: -0.011,inactive: -0.007
PDAP1 (UniProt Q13442),inactive: -0.01,inactive: -0.022,inactive: 0.02,inactive: -0.005,inactive: 0.001,inactive: -0.007,inactive: 0.023,inactive: 0.016,inactive: -0.012,inactive: 0.026
PEX2 (UniProt P28328),inactive: 0.106,active: -0.731,inactive: 0.068,inactive: 0.048,inactive: -0.128,inactive: 0.082,inactive: -0.119,,,inactive: -0.04
PCYT1B (UniProt Q9Y5K3),inactive: -0.016,inactive: 0.015,inactive: -0.006,inactive: 0.046,inactive: -0.03,inactive: 0.002,inactive: 0.044,inactive: -0.041,inactive: -0.032,inactive: -0.023
PCNX3 (UniProt Q9H6A9),,inactive: -0.024,,inactive: 0.06,inactive: 0.044,,inactive: 0.027,inactive: -0.095,inactive: 0.07,
PDE4DIP (UniProt E9PS60),inactive: 0.026,inactive: -0.056,inactive: -0.13,inactive: 0.044,,,inactive: 0.039,inactive: 0.114,inactive: 0.063,
PEX10 isoform 2 (UniProt O60683),,,,,inactive: 0.002,,,,,
PEX6 (UniProt Q13608),inactive: -0.116,,inactive: -0.275,,inactive: 0.192,,,inactive: 0,inactive: 0.033,
PDP1 isoform 2 (UniProt Q9P0J1),inactive: 0.028,,inactive: 0.141,,,inactive: 0.077,,inactive: 0.176,inactive: 0.005,inactive: 0.171
PFN3 (UniProt P60673),,inactive: -0.231,,inactive: -0.078,,,inactive: -0.162,inactive: -0.041,inactive: 0.155,

# Individual results from the results shown.
# PCYT1A (UniProt P49585) | log2 fold change (erlotinib): inactive: -0.021
# PC (UniProt P11498) | log2 fold change [7]: inactive: 0.054

# Continued:

Target,log2 fold change (erlotinib),log2 fold change [1],log2 fold change [2],log2 fold change [3],log2 fold change [4],log2 fold change [5],log2 fold change [6],log2 fold change [7],log2 fold change [8],log2 fold change (IRAK-1-4 Inhibitor I)
PCBP2 (UniProt F8VRH0),inactive: 0.084,,inactive: -0.182,,,inactive: -0.092,,,,inactive: 0.11
PBRM1 (UniProt Q86U86),inactive: 0.185,,inactive: 0.131,,inactive: -0.062,inactive: 0.056,,inactive: -0.076,inactive: -0.05,inactive: -0.094
PCK1 (UniProt P35558),,inactive: -0.07,,inactive: -0.075,inactive: -0.06,,inactive: -0.262,,,
PARP12 (UniProt Q9H0J9),inactive: 0.172,,inactive: -0.075,,inactive: -0.213,inactive: -0.042,,inactive: -0.187,inactive: 0.076,inactive: 0.025
PARP4 (UniProt Q9UKK3),inactive: 0.066,,inactive: -0.02,,inactive: 0.063,,,inactive: -0.115,inactive: 0.058,
PCGF3 isoform 2 (UniProt Q3KNV8),inactive: 0,,inactive: 0.01,,,,,,,
PCM1 isoform 5 (UniProt Q15154),,,,,,,,inactive: 0.103,inactive: 0.018,
PDIK1L (UniProt Q8N165),,,,,,inactive: 0.053,,,,inactive: 0.189
PEX5 (UniProt J3KPV0),,inactive: 0.091,,inactive: -0.28,,inactive: -0.167,inactive: -0.18,inactive: -0.056,inactive: -0.016,inactive: 0.001
PCMTD1 (UniProt Q96MG8),,inactive: -0.42,,inactive: 0.13,,,inactive: 0.004,inactive: 0.02,inactive: -0.082,
PEX7 (UniProt O00628),,inactive: 0.043,,inactive: 0.012,inactive: 0.026,inactive: -0.432,inactive: -0.167,inactive: -0.02,inactive: -0.017,inactive: 0.036
PCGF1 (UniProt Q9BSM1),inactive: 0.073,inactive: -0.035,inactive: 0.138,inactive: 0,,,inactive: -0.198,inactive: 0.009,inactive: 0.099,
PECR (UniProt Q9BY49),,,,,,,,inactive: -0.004,inactive: 0.056,
PGD (UniProt K7EPF6),,,,,inactive: -0.147,,,,,
PDCD7 (UniProt Q8N8D1),,,,,,,,inactive: -0.1,inactive: 0.208,
PEX1 (UniProt O43933),,inactive: 0.135,,inactive: -0.009,,inactive: -0.134,inactive: 0.035,inactive: 0.133,inactive: 0.104,inactive: -0.01
PER2 (UniProt O15055),,inactive: -0.09,,inactive: -0.03,,,inactive: 0.091,,,
PCMTD2 (UniProt Q9NV79),inactive: 0.11,inactive: -0.083,inactive: -0.04,inactive: -0.285,,,inactive: 0.021,inactive: -0.062,inactive: 0.32,
